Patent US20170002393A1, “COMPOSITIONS AND METHODS FOR ANTIBODY PRODUCTION” (IMMUNOGEN, INC., priority 2013, published 2017)
“Also recorded” adds a separate entry of the source. Some compounds share one wording; it may come from a single statement.

Legend:
humanized N901 IgG1 = test: Covalent modification of antibody (mass spectrometry of deglycosylated antibody); settings: mass spectrometry versus unreduced antibody; 1 mM agent with CHO cell lysate, 3 hours (concentration not given for coenzyme Q0)
anti-FOLR1 IgG1 = test: Covalent modification of antibody (absorbance at 610 nm, mass spectrometry)

Row | Structure (SMILES) | covalent modification of the antibody (humanized N901 IgG1) | covalent modification of the antibody (anti-FOLR1 IgG1; 0.05 mM agent, absorbance at 610 nm, mass spectrometry) | absorbance at 610 nm of eluted neutralized antibody (anti-FOLR1 IgG1; after 0.05 mM methylene blue treatment, 2.2 hours)
1 | COC(=O)[C@@H](N)CSSC[C@H](N)C(=O)OC [CDME, L-cystine dimethyl ester] | did not covalently modify the antibody |  | 
2 | COC1=C(OC)C(=O)C(C)=CC1=O [coenzyme Q0, 2,3-dimethoxy-5-methyl-p-benzoquinone] | not covalently modified |  | 
3 | CN(C)c1ccc2nc3ccc(N(C)C)cc3[s+]c2c1 [methylene blue, Methylene blue] |  | did not covalently modify the antibody; also recorded: did not lead to the modification of the antibody | 0.000
4 | O=C(O)CCCCC1CCSS1 (racemic) [lipoic acid, 1,2-dithiolane-3-pentanoic acid] | did not covalently modify the antibody |  | 
5 | O=C1c2ccccc2C(=O)c2cc(S(=O)(=O)O)ccc21 [AQS, anthraquinone-2-sulfonic acid] | did not covalently modify the antibody |  | 
